Measured values from PubChem BioAssay AID485349 (National Center for Advancing Translational Sciences (NCATS), 2010).
The whole screen tested about 320,000 compounds, of which about 620 (0.19%) were called active. This list was built around the results that the source calls inconclusive (neither active nor inactive); the mix of calls is not that of the screen. Calls follow the shape of the dose curve; as a rule, active = well fitted activation curve with a large enough effect; inconclusive = small, poorly fitted or top-dose-only effect; inactive = no such curve, though single readings can be large or run the other way. Where the call is inconclusive, the potency comes from a doubtful curve fit.

Assay: qHTS Assay for Identifying a Potential Treatment of Ataxia-Telangiectasia; also: nearly all actives have a fitted effect of over 45% in size; as to activation: % of control where 0% means no effect
Conditions: […] A-T fibroblasts, KAP-1 phosphorylation AlphaLISA, neocarzinostatin DNA damage 30 min before lysis; series mostly up to 57.5 µM; activation: at the top concentration
Outline: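 ATM-like activity read as KAP-1 phosphorylation via AlphaLISA donor/acceptor antibody pairs after lysis and 6 hr at 25C. Cells were ATM-null patient fibroblasts ([…], hTERT), dosed 60 min, then exposed to the DSB inducer NCS for 30 min.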
Potency is read from the fitted curve at half-maximal effect.

| Compound | Potency | activation |
| --- | --- | --- |
| CC(=O)Oc1ccc(N2C(=O)C3C(C2=O)C(C(=O)c2ccc(Cl)cc2)N2CCCC32)cc1 (stereo not given) | inconclusive: 39.8 µM [activator, partial curve, poor fit] | – |
| CCN(C(=O)CSc1nccc(=O)[nH]1)C1CCCCC1 | inconclusive: 35.5 µM [activator, single point] | – |
| CCOc1ccc(OCc2ccc(C(=O)NN=Cc3ccc[nH]3)cc2)cc1 | inconclusive: 31.6 µM [activator, single point] | – |
| CC(=O)Oc1ccc(N2C(=O)C3C4C=CC(O4)C3C2=O)cc1 (stereo not given) | inconclusive: 39.8 µM [activator, single point] | – |
| COc1cc(Cl)nn(-c2ccccc2)c1=O | inconclusive: 3.98 µM [activator, partial curve] | – |
| CC(C)c1nc(N2CCCC2)c(C#N)c2c1CCCC2 | inconclusive: 39.8 µM [activator, single point] | – |
| COc1ccc(-c2noc(CN(C(=O)c3ccc(OC(C)=O)cc3)C(C)C)n2)cc1OC | inconclusive: 39.8 µM [activator, single point] | – |
| CCOC(=O)C1(CCOC)CCN(Cc2ccc(C(=O)OC)cc2)CC1 | inconclusive: 22.4 µM [activator, single point] | – |
| CN(CCc1ccccn1)C(=O)c1cc(COc2ccc(F)cc2F)on1 | inconclusive: 0.708 µM [activator, full curve] | – |
| CC(=O)Oc1ccc(N2C(=O)C3C(C2=O)C2(C)C=CC3(C)O2)cc1 (stereo not given) | inconclusive: 7.08 µM [activator, single point] | – |
| CCOc1ccc(/C=C2\CCC(C3CCCC3)C2=O)cc1OC (stereo not given) | – | inactive: -3.44% |
| Cc1ccccc1CN1CCN(Cc2ccccc2C(F)(F)F)CC1 | inconclusive: 39.8 µM [activator, single point] | – |
| CCN(CC)CCN1C(=O)c2cccc3cc(N)cc(c23)C1=O | – | inactive: 8.68% |
| CCc1nnc(NC(=O)C(CC)CC)s1 | active: 39.8 µM | – |
| Nc1nc2ccccc2n1Cc1ccc(Cl)c(Cl)c1 | – | inactive: -5.89% |
| COc1ccc(CCNC(=O)Nc2ccc(F)cc2F)cc1OC | active: 10 µM | – |
| CCOC(=O)C1=C(C)C/C(=N\NC(=O)c2ccccc2O)CC1 | – | inactive: 11.5% |
| CCC(O)(C(=O)Nc1ccccc1C(F)(F)F)c1ccccc1OC (stereo not given) | inconclusive: 22.4 µM [activator, partial curve] | – |
| CNC(=S)NNC(=O)c1oc2nc(-c3ccccc3)cc(-c3ccco3)c2c1N | active: 39.8 µM | – |
| Cn1nccc1C(=O)N1CCN(c2cccc(C(F)(F)F)c2)CC1 | inconclusive: 3.16 µM [activator, single point] | – |
| c1ccc(-c2nnc(-c3ccccn3)s2)nc1 | inconclusive: 3.16 µM [activator, partial curve] | – |
| CC(Oc1ccccc1)C(=O)Nc1cccc(F)c1 (stereo not given) | inconclusive: 6.31 µM [activator, single point] | – |
| Cc1ccc(-c2c(C#N)c(N)nc3c2CCCCC3)o1 | – | inactive: 9.96% |
| CCOC(=O)C1(C)NC(c2cccc(C)c2)C2C(=O)N(c3ccccc3)C(=O)C21 (stereo not given) | inconclusive: 2.51 µM [activator, partial curve, poor fit] | – |

| Compound | Potency | activation |
| --- | --- | --- |
| CCOC(=O)N1CCC(NC(=O)c2ccc3c(c2)N=C(C)c2ccccc2S3)CC1 | – | inactive: -0.984% |
| Cc1cc(C)cc(SCc2noc(C(=O)NCc3ccccc3)c2C(=O)NCc2ccccc2)c1 | inconclusive: 39.8 µM [activator, single point] | – |
| CCC(C)(C)C1CCc2[nH]nc(C(=O)N/N=C(\C)c3ccco3)c2C1 (stereo not given) | inconclusive: 39.8 µM [activator, single point] | – |
| Cc1onc(-c2ccccc2)c1C(O)c1ccc(F)cc1 (stereo not given) | active: 31.6 µM | – |
| Cc1cc(C)n(-c2nc(SCC(=O)Nc3nccs3)c3c4c(sc3n2)COC(C)(C)C4)n1 | inconclusive: 5.01 µM [activator, full curve, poor fit] | – |
| O=CN1CCN(C2CC(=O)N(c3ccc(Br)cc3)C2=O)CC1 (stereo not given) | inconclusive: 0.631 µM [activator, full curve, poor fit] | – |
| CCN(C(=O)CSc1ccc2c(c1)OCCO2)C1CCS(=O)(=O)C1 (stereo not given) | inconclusive: 22.4 µM [activator, partial curve, poor fit] | – |
| CC(C)(CN1CCN(c2ccccc2)CC1)NS(=O)(=O)c1ccccc1 | inconclusive: 0.708 µM [activator, full curve, poor fit] | – |
| CCCCNc1c(-c2ccc(-c3cccc(Cl)c3)cc2)nc2ccccn12 | inconclusive: 14.1 µM [activator, partial curve] | – |
| CN(C)c1ccc(C(=O)c2ccccc2)cc1 | – | inactive: 2.4% |
| CC1=CC(c2ccccc2)n2nc(NS(=O)(=O)c3ccc(C)cc3)nc2N1 (stereo not given) | inconclusive: 22.4 µM [activator, partial curve] | – |
| C=CCn1c(SCC(=O)NNC(=O)Nc2cccc(Cl)c2)nnc1-c1ccccc1 | inconclusive: 39.8 µM [activator, single point] | – |
| C=CCC[C@@H](Cc1ccc(F)cc1)C(=O)OC[C@H](Cc1c[nH]c2ccccc12)NC(=O)[C@@H](CC=C)CC(=O)N[C@H](CO)Cc1ccccc1 | – | inactive: 2.55% |
| COc1ccccc1NC(=O)CN(c1ccc(C23CC4CC(CC(C4)C2)C3)cc1)S(C)(=O)=O | – | inactive: -2% |
| C(=C\c1ccccn1)/c1ccccn1 | inconclusive: 0.316 µM [activator, full curve, poor fit] | – |
| N#C[C@H]1[C@H](c2ccccc2)[C@](C#N)(C(=O)c2ccccc2)[C@@H]2C=Cc3ccccc3N21 | active: 15.8 µM | – |
| CCOC(=O)C(=O)Nc1nnc(Cc2ccc(OC)c(OC)c2)s1 | active: 28.2 µM | – |
| CCOc1ccccc1/C=C/C(=O)c1ccc(Cl)cc1 | inconclusive: 15.8 µM [activator, partial curve] | – |
| CC(C)c1ccc(NC(=O)CSC(C)c2nc3ccccc3c(=O)[nH]2)cc1 (stereo not given) | active: 3.98 µM | – |
| Cc1noc(C)c1CSCC(=O)Nc1nc(-c2ccc(F)c(F)c2)cs1 | – | inactive: -1.22% |
| CSc1cccc(NC(=O)Nc2nc3c(C)cccc3s2)c1 | inconclusive: 3.55 µM [activator, full curve, poor fit] | – |
| O=C(CCCn1c(=O)oc2ccccc21)N1CCN(c2ccc(F)cc2)CC1 | inconclusive: 31.6 µM [activator, partial curve] | – |
| Cc1cc2c(c(=O)o1)C(CCC1CCCCC1)C(C#N)=C(N)O2 (stereo not given) | inconclusive: 3.98 µM [activator, full curve] | – |
| CC(=O)Nc1sc2c(c1-c1nc3ccccc3s1)CN(C(C)C)CC2 | inconclusive: 25.1 µM [activator, partial curve] | – |

Entries of single compounds, looked up by structure.
N#C[C@H]1[C@H](c2ccccc2)[C@](C#N)(C(=O)c2ccccc2)[C@@H]2C=Cc3ccccc3N21 is listed with Potency: active: 15.8 µM
Cc1ccccc1CN1CCN(Cc2ccccc2C(F)(F)F)CC1 is listed with Potency: inconclusive: 39.8 µM [activator, single point]
Cc1ccc(-c2c(C#N)c(N)nc3c2CCCCC3)o1 is listed with activation: inactive: 9.96%

More entries

| Compound | Potency | activation |
| --- | --- | --- |
| O=C(CCN1C(=O)C2CC=CCC2C1=O)NC1CCCCC1 (stereo not given) | inconclusive: 39.8 µM [activator, single point] | – |
| COc1cc(/C=C(\C#N)C(=O)Nc2cccc(C(=O)O)c2)ccc1OCc1ccc(F)cc1 | – | inactive: 3.61% |
| N#CCN1C(=O)C(=O)N(Cc2cccc(Cl)c2)C1=O | active: 0.708 µM | – |
| Cc1ccc(Cn2ccc(NC(=O)c3cc(C(C)C)on3)n2)cc1 | inconclusive: 31.6 µM [activator, partial curve] | – |
| CC(=O)c1c(C)n(-c2ccc(N(C)C)cc2)c2ccc(OCC(N)=O)cc12 | inconclusive: 8.91 µM [activator, partial curve] | – |
| Cc1cc(C)n(-c2nc3ccccc3nc2NCCc2ccccc2)n1 | inconclusive: 44.7 µM [activator, partial curve] | – |
| Cc1cccc(C2(c3cccc(C)c3)CC2C(=O)Nc2ccc([N+](=O)[O-])cc2O)c1 (stereo not given) | inconclusive: 39.8 µM [activator, partial curve] | – |
| O=C(O)c1ccc(/C=C/c2nc3ccccc3c(=O)[nH]2)cc1 | inconclusive: 0.708 µM [activator, partial curve, poor fit] | – |
| O=C(c1cc2cc([N+](=O)[O-])ccc2oc1=O)n1cccn1 | – | inactive: 5.45% |
| Cc1nc2c(c(=O)n1CCC1=CCCCC1)c1nc3ccccc3nc1n2/N=C/c1ccco1 | inconclusive: 7.08 µM [activator, single point] | – |
| CC(=O)Nc1ccc(NS(=O)(=O)c2c(Cl)cccc2Cl)cc1 | active: 39.8 µM | – |
| CCCCCCCCCn1ccc(=N)cc1 | active: 3.16 µM | – |
| Clc1ccc(CSc2nnc(-c3ccccn3)n2Cc2ccco2)c(Cl)c1 | inconclusive: 3.16 µM [activator, partial curve] | – |
| CCc1ccc(-c2cn(-c3nc(C)cc(C)n3)c(=N)o2)cc1 | inconclusive: 35.5 µM [activator, single point] | – |
| Cc1c(Cc2ccccc2)c(=O)n2c([nH]c3ccccc32)c1C#N | inconclusive: 39.8 µM [activator, partial curve] | – |
| COC(=O)C1=CN(C2CC2)C=C(C(=O)OC)C1c1ccc(C(=O)OC)cc1 | active: 31.6 µM | – |
| Cc1ccc(CNS(=O)(=O)c2ccc3c(c2)NC(=O)CS3)cc1 | inconclusive: 5.01 µM [activator, full curve, poor fit] | – |
| COc1ccc(/C=C(\C#N)C(=O)Nc2cc(C)c(Cl)cc2OC)cc1O | inconclusive: 3.98 µM [activator, single point] | – |
| CC1=CC(C)(C)N2C(=O)C(=O)c3cc(OC(=O)c4ccco4)cc1c32 | – | inactive: -2.01% |
| Cc1onc(-c2ccccc2Cl)c1C(O)c1ccc(F)cc1 (stereo not given) | inconclusive: 5.01 µM [activator, full curve, poor fit] | – |
| COc1ccc(C2CC(c3cccs3)=NN2c2ccc(F)cc2)cc1OC (stereo not given) | active: 25.1 µM | – |
| O=C(CNc1n[nH]c(=O)[nH]c1=O)N/N=C/C1CC=CCC1 (stereo not given) | active: 31.6 µM | – |
